Results are given in words; binding and its absence hold for the method and conditions named.
Molecular target: PKCζ^11–101 (pKCζ–PB1) (human) (UniProt Q05513)
Experiment: co-sedimentation; sedimentation (pelletation) assay of single purified PB1 domains by ultracentrifugation; soluble and pellet fractions on SDS-PAGE; both purified

The chains behind the UniProt entries cited, without tags or fusion partners. Residues count along the entry.
UniProt Q05513, residues 11-101: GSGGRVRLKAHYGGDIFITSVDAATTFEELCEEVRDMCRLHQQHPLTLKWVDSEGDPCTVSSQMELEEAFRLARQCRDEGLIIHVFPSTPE

binding: no binding
Substance: PKCζ^11–101 (pKCζ–PB1) (from UniProt Q05513 11-101) (domain or fragment)

— paper PMC6978347
